Measured data: PubChem BioAssay AID1224828 (NIAID, 2016)
Assay: 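Knock-downs that increase or decrease LPS-induced p65 nuclear translocation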 (primary screen). System: mouse RAW264.7 G9 macrophage reporter cells (GFP-p65, Tnf promoter-mCherry). Reagents: siRNA pool against mouse genes, 100 nM. Timing: 2 days siRNA transfection, then 40 min LPS before fixation. Conditions: LPS (Salmonella minnesota R595) at 10 ng/ml. Read-out: 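Imaged p65 nuclear translocation ratio, normalised to the plate median, converted to robust z-scores and averaged across two replicates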. Scale: p65 translocation robust z-score: higher = more nuclear NF-kappaB p65 after LPS than the plate median; nuclear/cytoplasmic p65 ratio: higher = more nuclear NF-kappaB p65. Call rule: 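Active if robust z is above 3.3 (negative regulators) or below -1.56, the Tlr4 control median (positive regulators); activity score 50 or more; control wells not called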. Meaning of the calls: active = hit (p65 shift raised or lowered); inactive = no clear change.
The whole screen tested about 17,000 reagents; shown is a random part of them. 762 of them (4.5%) count as active. 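Active calls include both raised and lowered p65 entry, mostly lowered; wells with fewer than 50 cells lack a z-score.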 The raw values are shown without normalisation. The numbers tell different reagents against one gene apart.

no.	target gene	reagent	p65 translocation robust z-score	nuclear/cytoplasmic p65 ratio, rep 1	nuclear/cytoplasmic p65 ratio, rep 2	low cell count flag	call
1	Klra8	1	-0.65	1.37	1.31	enough cells to score	inactive
2	Or52ac1	1	0.15	1.44	1.3	enough cells to score	inactive
3	Or2t47	1	-3.04	1.13	1.04	enough cells to score	active
4	Zfp956	1	-1.08	1.38	1.58	enough cells to score	inactive
5	Wdr27	1	-0.07	1.49	1.44	enough cells to score	inactive
6	Gpat4	1	1.21	1.51	1.75	enough cells to score	inactive
7	Uqcrq	1	-0.42	1.49	1.39	enough cells to score	inactive
8	Aknad1	1	0.1	1.4	1.19	enough cells to score	inactive
9	Txnrd1	1	-0.03	1.53	1.31	enough cells to score	inactive
10	Fmnl3	1	1.62	1.81	1.7	enough cells to score	inactive
11	Raet1c	1	0.42	1.44	1.26	enough cells to score	inactive
12	Zfp280b	1	1.33	1.76	2.01	enough cells to score	inactive
13	1700001G17Rik	1	-0.46	1.36	1.34	enough cells to score	inactive
14	Neurod6	1	-0.5	1.7	1.52	enough cells to score	inactive

Laid out differently: entries from further up
Or2t47 → p65 translocation robust z-score: -3.04; nuclear/cytoplasmic p65 ratio, rep 1: 1.13; nuclear/cytoplasmic p65 ratio, rep 2: 1.04; low cell count flag: enough cells to score; call: active
Zfp956 → p65 translocation robust z-score: -1.08; nuclear/cytoplasmic p65 ratio, rep 1: 1.38; nuclear/cytoplasmic p65 ratio, rep 2: 1.58; low cell count flag: enough cells to score; call: inactive
Wdr27 → p65 translocation robust z-score: -0.07; nuclear/cytoplasmic p65 ratio, rep 1: 1.49; nuclear/cytoplasmic p65 ratio, rep 2: 1.44; low cell count flag: enough cells to score; call: inactive
Gpat4 → p65 translocation robust z-score: 1.21; nuclear/cytoplasmic p65 ratio, rep 1: 1.51; nuclear/cytoplasmic p65 ratio, rep 2: 1.75; low cell count flag: enough cells to score; call: inactive

Next reagents follow.
no.	target gene	reagent	p65 translocation robust z-score	nuclear/cytoplasmic p65 ratio, rep 1	nuclear/cytoplasmic p65 ratio, rep 2	low cell count flag	call
15	Csrp3	1	-0.97	1.34	1.26	enough cells to score	inactive
16	Or4c109	1	-2.11	1.42	1.19	enough cells to score	active
17	Cnr2	1	-0.69	1.41	1.37	enough cells to score	inactive
18	Faah	1	2.15	1.8	1.6	enough cells to score	inactive
19	Clns1a	1	-0.07	1.61	1.74	enough cells to score	inactive
20	Or6z1	1		1.62	1.47	fewer than 50 cells per well; well left out of scoring	inactive
21	Arg2	1	-1.34	1.35	1.38	enough cells to score	inactive
22	LOC381853	1	0.39	1.53	1.67	enough cells to score	inactive
23	Or8g21	1	2.36	1.73	1.53	enough cells to score	inactive
24	Gpr143	1	-0.26	1.49	1.53	enough cells to score	inactive
25	Rlim	1		1.72	1.1	fewer than 50 cells per well; well left out of scoring	inactive
26	Rlim	2	-2.05	1.26	1.41	enough cells to score	active
27	Or2h1	1	-0.51	1.46	1.11	enough cells to score	inactive
28	Kmt2a	1	-0.64	1.26	1.35	enough cells to score	inactive
29	Anapc10	1	-0.11	1.56	1.64	enough cells to score	inactive
30	Or8k22	1	-0.74	1.51	1.5	enough cells to score	inactive
31	Zp1	1	0.21	1.41	1.3	enough cells to score	inactive
32	Rp1	1	0.56	1.6	1.59	enough cells to score	inactive
33	Or1ad1	1	-0.33	1.47	1.54	enough cells to score	inactive
34	Ank3	1	-0.08	1.62	1.59	enough cells to score	inactive
35	Ccdc86	1	0.57	1.73	1.56	enough cells to score	inactive
36	Gramd2b	1	-0.8	1.4	1.35	enough cells to score	inactive
37	Scd3	1	0.38	1.45	1.28	enough cells to score	inactive
38	Atg7	1	-0.11	1.65	1.56	enough cells to score	inactive
39	Or13n4	1	-0.15	1.36	1.25	enough cells to score	inactive
40	Rps26	1	-0.3	1.37	1.19	enough cells to score	inactive
